Assay [1] addresses T1, His6_Wcw_1460 (Waddlia chondrophila) (UniProt D6YRW4).
T1 sequence: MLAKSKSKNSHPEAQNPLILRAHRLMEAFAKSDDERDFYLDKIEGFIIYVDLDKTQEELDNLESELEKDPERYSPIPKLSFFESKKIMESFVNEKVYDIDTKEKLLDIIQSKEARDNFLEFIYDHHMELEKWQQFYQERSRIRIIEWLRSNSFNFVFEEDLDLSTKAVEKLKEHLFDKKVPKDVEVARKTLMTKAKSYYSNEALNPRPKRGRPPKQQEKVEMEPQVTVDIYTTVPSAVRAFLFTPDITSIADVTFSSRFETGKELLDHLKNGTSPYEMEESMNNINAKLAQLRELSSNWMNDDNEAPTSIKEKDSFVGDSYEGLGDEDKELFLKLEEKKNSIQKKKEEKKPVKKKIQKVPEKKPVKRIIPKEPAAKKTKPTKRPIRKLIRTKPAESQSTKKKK
In words: affinity purification with mass spectrometry; His pull-down (Pierce Pull-Down PolyHis kit): His-tagged bait from the E. coli soluble fraction immobilised on HisPur Cobalt resin; prey: lysate of purified W. chondrophila EBs (1/40 fraction per pull-down); eluted with SDS sample buffer; shotgun mass spectrometry; His tag alone as control; only the target purified.

Assay [2] concerns the target T2, His6_Wcw_1456 (Waddlia chondrophila) (UniProt D6YRW0).
T2 sequence: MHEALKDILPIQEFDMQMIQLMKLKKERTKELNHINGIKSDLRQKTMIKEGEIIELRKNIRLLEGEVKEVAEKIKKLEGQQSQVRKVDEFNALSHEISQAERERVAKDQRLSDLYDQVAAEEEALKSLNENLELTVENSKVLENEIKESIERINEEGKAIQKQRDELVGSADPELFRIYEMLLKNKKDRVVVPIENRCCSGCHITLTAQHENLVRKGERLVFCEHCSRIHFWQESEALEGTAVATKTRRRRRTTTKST
Described as above.

These are yes or no findings as the source states them, for the method shown. In cells and extracts the contact can be indirect. Here binding means that the protein was enriched with, or labelled near, the bait; the list need not be complete. No binding means not detected with the bait. Tags and fused reporters may be left off the sequences shown.

B1: Wcw_1456 (endogenous) (protein, UniProt D6YRW0 1-258)
chain: MHEALKDILPIQEFDMQMIQLMKLKKERTKELNHINGIKSDLRQKTMIKEGEIIELRKNIRLLEGEVKEVAEKIKKLEGQQSQVRKVDEFNALSHEISQAERERVAKDQRLSDLYDQVAAEEEALKSLNENLELTVENSKVLENEIKESIERINEEGKAIQKQRDELVGSADPELFRIYEMLLKNKKDRVVVPIENRCCSGCHITLTAQHENLVRKGERLVFCEHCSRIHFWQESEALEGTAVATKTRRRRRTTTKST
For B1, in assay [1], the binding entry was “no binding”.

B2: RpoD (σ^66) (protein, UniProt D6YT87 1-555)
chain: MKNNSTPKEAISQQHQQKIDELVAIAKDQGFITYEEINDVLPMTIDTADQIDQILIFLSGMDVQILNQSEVERQKEKKKEAKELEGLPRRVEGTPDDPVRMYLKEMGSVPLLTREEEVEISKRIEKAQHQIERIIMRFRNSSRETIAICSALINNKERFDKCITEKEIENKTEFLKLLPRLSDLLQKDDQILESHLIELENPKLTKAERAYYLEEIEKARIRTQAYLRRLHLRHNIIDDFGEVIMESYDRFLQLEEEILELTPRAERNKYAGLKLAAAKRKLKKKELAAGRSLEEYKKDVRMLQRWMDKSQEAKREMVESNLRLVISIAKKYTNRGLSFLDLIQEGNMGLMKAVEKFEYRRGYKFSTYATWWIRQAVTRAIADQARTIRIPVHMIETINKVLRGAKKLMMETGREPTPEELANELGLSAERIREIYKIAQHPISLQAEVGDGGESQFGDFLEDTGADSPAEATGYSILKDKMNEVLLTLTDRERKVLIQRFGLNDGKPKTLEEVGVEFNVTRERIRQIEAKALRKMRHPTRSKQLKAFLDLLEVE
With B2, the binding result in assay [2] and in assay [1] was “binds” each time.

B3: Wcw_1460 (endogenous) (protein, UniProt D6YRW4 1-403)
chain: MLAKSKSKNSHPEAQNPLILRAHRLMEAFAKSDDERDFYLDKIEGFIIYVDLDKTQEELDNLESELEKDPERYSPIPKLSFFESKKIMESFVNEKVYDIDTKEKLLDIIQSKEARDNFLEFIYDHHMELEKWQQFYQERSRIRIIEWLRSNSFNFVFEEDLDLSTKAVEKLKEHLFDKKVPKDVEVARKTLMTKAKSYYSNEALNPRPKRGRPPKQQEKVEMEPQVTVDIYTTVPSAVRAFLFTPDITSIADVTFSSRFETGKELLDHLKNGTSPYEMEESMNNINAKLAQLRELSSNWMNDDNEAPTSIKEKDSFVGDSYEGLGDEDKELFLKLEEKKNSIQKKKEEKKPVKKKIQKVPEKKPVKRIIPKEPAAKKTKPTKRPIRKLIRTKPAESQSTKKKK
Turning to B3, the binding result in assay [2] is “no binding”.

(Values after PMC6426960.)
